According to patent US11977071B2, “Method for screening for platelet production promoters” (Kyoto University, priority 2016, dated 2024):
Some entries share one result that the patent states for a list of compounds. At least one compound was matched to its structure with a doubt left.

How the values were obtained:
[1] = test system: TUBB1 expression (VENUS reporter) in immortalized megakaryocyte cell line MKCL #12-23 cre2; test: Secondary screening: VENUS fluorescence intensity in reporter immortalized megakaryocyte cell line at four concentrations; type: cell-based, human; settings: 10 μM, 3.3 μM, 1.1 μM and 0.4 μM compound, day 7 of culturing, 96-well dish
Experimental: Secondary screening consisted of seeding the immortalized megakaryocyte cell line obtained according to the method described above into a 96-well dish and culturing after adding 10 μM Y-27632, 50 ng/ml of TPO, 50 ng/ml of SCF and the primary candidate compounds at concentrations of 10 μM, 3.3 μM, 1.1 μM and 0.4 μM each. The cells were also cultured in differentiation medium containing 0.75 μM SR1, 10 μM Y-27632, 50 ng/ml of TPO and 50 ng/ml of SCF (positive control) or differentiation medium containing 0.1% DMSO, 10 μM Y-27632, 50 ng/ml of TPO and 50 ng/ml of SCF (negative control). On day 7 of culturing, the fluorescence intensity of VENUS in each compound group was measured with Array Scan VTI (Thermo Scientific), and the value of fluorescence intensity of each compound was corrected according to the fluorescence intensity of the positive control (assigned a value of 100%) and the fluorescence intensity of the negative control (assigned a value of 0%). […] The secondary candidate compounds consisted of 35 types of compounds, and included, for example, TCS-359 (CAS NO. 301305-73-7, Santa Cruz Biotechnology, Inc.) and C59 (CAS NO. 1243243-89-1).

[2] = test system: TUBB1 expression (VENUS reporter) in immortalized megakaryocyte cell line MKCL #12-23 cre2; test: Primary screening: VENUS fluorescence intensity in reporter immortalized megakaryocyte cell line; type: cell-based, human; settings: 1 μM compound, day 7 of culturing, 96-well dish, with 10 μM Y-27632, TPO, SCF

`COc1ccc(C(=O)Nc2sc3c(c2C(N)=O)CCCC3)cc1OC` [TCS-359] was tested, and the “VENUS fluorescence intensity corrected to positive control (0.75 μM SR1 = 100%) and negative control (0.1% DMSO = 0%)” value [1] was ≥ 30% and the “VENUS fluorescence intensity corrected to positive control (0.75 μM SR1 = 100%) and negative control (0.1% DMSO = 0%)” value [2] was ≥ 30%.
`Cc1cc(-c2ccc(CC(=O)Nc3ccc(-c4cccnc4)cc3)cc2)ccn1` [C59] was tested, and the “VENUS fluorescence intensity corrected to positive control (0.75 μM SR1 = 100%) and negative control (0.1% DMSO = 0%)” value [1] was ≥ 30% and the “VENUS fluorescence intensity corrected to positive control (0.75 μM SR1 = 100%) and negative control (0.1% DMSO = 0%)” value [2] was ≥ 30%.
